Reference: PubChem BioAssay AID1224831 (NIAID, 2016)

Purpose: 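Retesting screen hits on the TLR4-driven TNF response with six separate siRNAs each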 (follow-up of hits)
System: human THP-1 B5 monocytic leukaemia cells carrying a TNF promoter luciferase reporter, made macrophage-like with PMA
Knock-down reagent: single siRNA against human genes, 50 nM
Duration: about 68 h of knock-down, then 4 h LPS
Challenge: LPS (Salmonella minnesota, TLR-grade) at 10 ng/ml for 4 h; PMA 5 ng/ml present during knock-down
Measurement: 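Firefly to renilla luciferase ratio of a TNF promoter reporter after 4 h LPS, scaled to plate median, turned into robust z-score, averaged over replicates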
Scale: TNF reporter z-score: higher = stronger LPS-induced TNF reporter signal; z-score, median over gene's siRNAs: higher = stronger TNF reporter signal across the gene's siRNAs
Active means: 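Two-sided call: reduced or raised TNF reporter signal counts as active once mean z reaches about -1 or below, or about 1.5 or above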
Meaning of the calls: active = changed TNF reporter (either direction); inactive = little change
Here is one part, drawn at random, of about 3,500 reagents tested. Of all reagents, 731 (21%) were called active. 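Active means either lowered or raised reporter signal; the gene-median score did not drive the per-siRNA calls.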 Unmarked entries are inactive. The numbers tell different reagents against one gene apart.

TNF reporter z-score, replicate mean	z-score, median over gene's siRNAs	gene symbol	reagent
-2.77 (active)	-1.62	POMP (proteasome maturation protein)	1
-1.75 (active)	-1.62	POMP (proteasome maturation protein)	2
-2.1 (active)	-1.62	POMP (proteasome maturation protein)	3
-1.5 (active)	-1.62	POMP (proteasome maturation protein)	4
-0.39	-1.62	POMP (proteasome maturation protein)	5
0.64	-1.62	POMP (proteasome maturation protein)	6
-0.29	0.08	RNF38 (ring finger protein 38)	1
0.12	0.08	RNF38 (ring finger protein 38)	2
-0.71	0.08	RNF38 (ring finger protein 38)	3
0.15	0.08	RNF38 (ring finger protein 38)	4
0.04	0.08	RNF38 (ring finger protein 38)	5
0.61	0.08	RNF38 (ring finger protein 38)	6
-2.11 (active)	0.22	SPICE1 (spindle and centriole associated protein 1)	1
0.18	0.22	SPICE1 (spindle and centriole associated protein 1)	2
0.26	0.22	SPICE1 (spindle and centriole associated protein 1)	3
0.58	0.22	SPICE1 (spindle and centriole associated protein 1)	4
0.42	0.22	SPICE1 (spindle and centriole associated protein 1)	5
-0.29	0.22	SPICE1 (spindle and centriole associated protein 1)	6
0.91	0.71	RBMX (RNA binding motif protein X-linked)	1
-0.31	0.71	RBMX (RNA binding motif protein X-linked)	2
1.28	0.71	RBMX (RNA binding motif protein X-linked)	3
0.85	0.71	RBMX (RNA binding motif protein X-linked)	4
0.57	0.71	RBMX (RNA binding motif protein X-linked)	5
0.56	0.71	RBMX (RNA binding motif protein X-linked)	6
0.66	0.405	PIK3C2G	1
0.9	0.405	PIK3C2G	2
-0.67	0.405	PIK3C2G	3
-0.7	0.405	PIK3C2G	4
1.72 (active)	0.405	PIK3C2G	5
0.15	0.405	PIK3C2G	6
0.49	0.15	NKRF (NFKB repressing factor)	1
-0.64	0.15	NKRF (NFKB repressing factor)	2
-0.19	0.15	NKRF (NFKB repressing factor)	3
1.67 (active)	0.15	NKRF (NFKB repressing factor)	4
0.54	0.15	NKRF (NFKB repressing factor)	5
-0.62	0.15	NKRF (NFKB repressing factor)	6
-0.78	0.11	UACA	1
1.04	0.11	UACA	2
0.36	0.11	UACA	3
-1.31 (active)	0.11	UACA	4
1.68 (active)	0.11	UACA	5
-0.14	0.11	UACA	6
0.63	0.485	RSRC2 (arginine and serine rich coiled-coil 2)	1
0.34	0.485	RSRC2 (arginine and serine rich coiled-coil 2)	2
0.45	0.485	RSRC2 (arginine and serine rich coiled-coil 2)	3
-0.17	0.485	RSRC2 (arginine and serine rich coiled-coil 2)	4
0.52	0.485	RSRC2 (arginine and serine rich coiled-coil 2)	5
0.63	0.485	RSRC2 (arginine and serine rich coiled-coil 2)	6
0.02	0.38	POU2F1 (POU class 2 homeobox 1)	1
0.59	0.38	POU2F1 (POU class 2 homeobox 1)	2
-0.07	0.38	POU2F1 (POU class 2 homeobox 1)	3
0.17	0.38	POU2F1 (POU class 2 homeobox 1)	4
1.16	0.38	POU2F1 (POU class 2 homeobox 1)	5
0.92	0.38	POU2F1 (POU class 2 homeobox 1)	6
-1.62 (active)	-0.115	APOC2 (apolipoprotein C2)	1
0.61	-0.115	APOC2 (apolipoprotein C2)	2
0.07	-0.115	APOC2 (apolipoprotein C2)	3
-0.3	-0.115	APOC2 (apolipoprotein C2)	4
1.17	-0.115	APOC2 (apolipoprotein C2)	5
-0.5	-0.115	APOC2 (apolipoprotein C2)	6
-1.67 (active)	-0.03	FSIP2 (fibrous sheath interacting protein 2)	1
-0.04	-0.03	FSIP2 (fibrous sheath interacting protein 2)	2
0.2	-0.03	FSIP2 (fibrous sheath interacting protein 2)	3
-0.02	-0.03	FSIP2 (fibrous sheath interacting protein 2)	4
-0.39	-0.03	FSIP2 (fibrous sheath interacting protein 2)	5
0.53	-0.03	FSIP2 (fibrous sheath interacting protein 2)	6
-0.53	-0.5	HSFX1 (heat shock transcription factor family, X-linked 1)	1
-0.24	-0.5	HSFX1 (heat shock transcription factor family, X-linked 1)	2
-0.62	-0.5	HSFX1 (heat shock transcription factor family, X-linked 1)	3
-0.47	-0.5	HSFX1 (heat shock transcription factor family, X-linked 1)	4
-0.57	-0.5	HSFX1 (heat shock transcription factor family, X-linked 1)	5
2.04 (active)	-0.5	HSFX1 (heat shock transcription factor family, X-linked 1)	6
-0.51	0.185	ATR (ATR checkpoint kinase)	1
1.76 (active)	0.185	ATR (ATR checkpoint kinase)	2
0.48	0.185	ATR (ATR checkpoint kinase)	3
-0.89	0.185	ATR (ATR checkpoint kinase)	4
1.1	0.185	ATR (ATR checkpoint kinase)	5
-0.11	0.185	ATR (ATR checkpoint kinase)	6
0.02	0.05	CPNE5 (copine 5)	1
0.84	0.05	CPNE5 (copine 5)	2
0.03	0.05	CPNE5 (copine 5)	3
-0.2	0.05	CPNE5 (copine 5)	4
0.07	0.05	CPNE5 (copine 5)	5
1.02	0.05	CPNE5 (copine 5)	6
-1.02 (active)	0.165	MYL1 (myosin light chain 1)	1
0.04	0.165	MYL1 (myosin light chain 1)	2
-0.69	0.165	MYL1 (myosin light chain 1)	3
1.34	0.165	MYL1 (myosin light chain 1)	4
0.29	0.165	MYL1 (myosin light chain 1)	5
1.67 (active)	0.165	MYL1 (myosin light chain 1)	6
0.81	-0.44	GPBAR1 (G protein-coupled bile acid receptor 1)	1
-0.46	-0.44	GPBAR1 (G protein-coupled bile acid receptor 1)	2
0.76	-0.44	GPBAR1 (G protein-coupled bile acid receptor 1)	3
-0.69	-0.44	GPBAR1 (G protein-coupled bile acid receptor 1)	4
-0.42	-0.44	GPBAR1 (G protein-coupled bile acid receptor 1)	5
-0.78	-0.44	GPBAR1 (G protein-coupled bile acid receptor 1)	6
0.46	0.515	KNCN (kinocilin)	1
0.59	0.515	KNCN (kinocilin)	2
1.55 (active)	0.515	KNCN (kinocilin)	3
-0.29	0.515	KNCN (kinocilin)	4
-0.2	0.515	KNCN (kinocilin)	5
0.57	0.515	KNCN (kinocilin)	6
0.91	0.55	DTNB (dystrobrevin beta)	1
0.56	0.55	DTNB (dystrobrevin beta)	2
0.54	0.55	DTNB (dystrobrevin beta)	3
-0.51	0.55	DTNB (dystrobrevin beta)	4
0.06	0.55	DTNB (dystrobrevin beta)	5
1.33	0.55	DTNB (dystrobrevin beta)	6
